{"source": "PubChem BioAssay AID743121 (NCATS, 2013)", "aim": "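Knock-downs that sensitise breast cancer cells to camptothecin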 (primary screen)", "system": "MDA-MB-231 cells, a human breast cancer line", "reagent": "single siRNA against human genes, 20 nM siRNA (0.8 pmol per well)", "time to read-out": "120 h (drug added 48 h after transfection, read 72 h later)", "conditions": "camptothecin 20 nM (about EC30) for 72 h; vehicle 0.1% DMSO in parallel plates", "measurement": "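CellTiter-Glo ATP signal, scaled to control siRNA as percent viability; sensitisation given as log2 of untreated divided by camptothecin-treated viability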", "direction": "log2 vehicle/camptothecin viability: higher = stronger sensitisation to camptothecin; viability with camptothecin: higher = more viable cells", "units": "viability with camptothecin in % of control", "rule for the call": "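Active genes have an RSA gene-level p-value below 0.001, computed from the ratios of their separate siRNAs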", "note": "This is one part, drawn at random, of about 26,000 reagents. In the full data, 167 (0.63%) got an active call. 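Calls are per gene from RSA p-values that are not deposited; an individual active-marked siRNA can sensitise only weakly.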 The numbers tell different reagents against one gene apart. Not all columns of the deposit are shown."}
{"Gene": "TRPM2 (GeneID 7226)", "siRNA no.": 1, "log2 vehicle/camptothecin viability": 0.00105, "viability with camptothecin": 82.3, "Call": "inactive"}
{"Gene": "TRPM2 (GeneID 7226)", "siRNA no.": 2, "log2 vehicle/camptothecin viability": 0.135, "viability with camptothecin": 34.3, "Call": "inactive"}
{"Gene": "TRPM2 (GeneID 7226)", "siRNA no.": 3, "log2 vehicle/camptothecin viability": -0.45, "viability with camptothecin": 48.5, "Call": "inactive"}
{"Gene": "PDE6B (GeneID 5158)", "siRNA no.": 1, "log2 vehicle/camptothecin viability": 0.0486, "viability with camptothecin": 60.8, "Call": "inactive"}
{"Gene": "PDE6B (GeneID 5158)", "siRNA no.": 2, "log2 vehicle/camptothecin viability": -0.271, "viability with camptothecin": 60, "Call": "inactive"}
{"Gene": "PDE6B (GeneID 5158)", "siRNA no.": 3, "log2 vehicle/camptothecin viability": 0.706, "viability with camptothecin": 32.6, "Call": "inactive"}
{"Gene": "PDE6B (GeneID 5158)", "siRNA no.": 4, "log2 vehicle/camptothecin viability": -0.107, "viability with camptothecin": 83.9, "Call": "inactive"}
{"Gene": "ADM (GeneID 133)", "siRNA no.": 1, "log2 vehicle/camptothecin viability": -0.699, "viability with camptothecin": 109, "Call": "inactive"}
{"Gene": "ADM (GeneID 133)", "siRNA no.": 2, "log2 vehicle/camptothecin viability": -0.254, "viability with camptothecin": 54.5, "Call": "inactive"}
{"Gene": "ADM (GeneID 133)", "siRNA no.": 3, "log2 vehicle/camptothecin viability": -0.219, "viability with camptothecin": 30.4, "Call": "inactive"}
{"Gene": "ADM (GeneID 133)", "siRNA no.": 4, "log2 vehicle/camptothecin viability": 0.253, "viability with camptothecin": 29.1, "Call": "inactive"}
{"Gene": "PTPN21 (GeneID 11099)", "siRNA no.": 1, "log2 vehicle/camptothecin viability": 1.39, "viability with camptothecin": 8.12, "Call": "inactive"}
{"Gene": "PTPN21 (GeneID 11099)", "siRNA no.": 2, "log2 vehicle/camptothecin viability": -0.15, "viability with camptothecin": 23.7, "Call": "inactive"}
{"Gene": "PTPN21 (GeneID 11099)", "siRNA no.": 3, "log2 vehicle/camptothecin viability": -0.516, "viability with camptothecin": 68.2, "Call": "inactive"}
{"Gene": "PTPN21 (GeneID 11099)", "siRNA no.": 4, "log2 vehicle/camptothecin viability": -0.286, "viability with camptothecin": 96.5, "Call": "inactive"}
